{"sequences": {"note": "Sequences of proteins named here, by UniProt entry; tags and fusion partners are left off. Residues count along the entry.", "UniProt Q2M405, residues 118-599": "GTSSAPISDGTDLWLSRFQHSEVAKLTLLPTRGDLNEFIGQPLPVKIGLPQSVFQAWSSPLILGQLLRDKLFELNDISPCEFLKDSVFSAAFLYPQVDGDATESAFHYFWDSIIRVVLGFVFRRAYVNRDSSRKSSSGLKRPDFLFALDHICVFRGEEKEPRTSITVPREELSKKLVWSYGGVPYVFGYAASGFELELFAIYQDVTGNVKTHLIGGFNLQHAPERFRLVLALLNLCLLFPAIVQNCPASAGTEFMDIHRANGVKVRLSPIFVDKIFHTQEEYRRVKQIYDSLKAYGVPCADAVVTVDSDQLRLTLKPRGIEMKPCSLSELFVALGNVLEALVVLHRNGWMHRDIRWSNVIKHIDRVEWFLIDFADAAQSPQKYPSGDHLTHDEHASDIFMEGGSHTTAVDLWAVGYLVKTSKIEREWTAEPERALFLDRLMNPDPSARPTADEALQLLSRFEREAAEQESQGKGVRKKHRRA"}, "source": "paper PMC3426532", "molecular_target": "CRN8 (amino acids 118-599), FLAG- or GFP-tagged fusion protein (Phytophthora infestans) (UniProt Q2M405)", "experiment": "co-IP", "note": "These are yes or no findings as the source states them, for the method shown. Binding seen in cells or lysates may run through a third protein. Some entries that bind do so weakly or less than the wild type.", "data": [{"substance": "CRN8 (amino acids 118-599), FLAG- or GFP-tagged fusion protein (from UniProt Q2M405 118-599) (domain or fragment)", "values": [{"measurement": "binding", "value": "binds"}]}]}
